# Results of single-concentration screens

Each number is a percent effect as filed.
How 0% and 100% were set is not recorded. Most values in the screen are low, and negative values occur.
The compounds are a random part of those screened.
Two or more numbers in one place are separate tests of the same structure; such repeats can differ widely.

Mtb glucose medium: 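Phenotypic screen: M. tuberculosis growth, glucose 7H9 medium, 3 days; the read-out is not stated. Tested at 50 µM. The record gives no direction; compounds that gave an IC50 in retests scored well above the rest, so higher reads as more growth inhibition. Of about 69,000 compounds tested this way, about 760 (1.1%) reached 50% or more in at least one test.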
Mtb cholesterol medium: 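Phenotypic screen: M. tuberculosis growth, cholesterol and DPPC medium, 4 days; the read-out is not stated. Compounds at 50 µM. Direction is inferred from retests: higher values go with more growth inhibition. Size under these conditions: about 69,000 compounds, about 370 of them at 50% or above in at least one test.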

* COc1cccc(-c2noc(-c3ccc(NCCCO)nc3)n2)c1OC | Mtb glucose medium: 45.46%; Mtb cholesterol medium: 37.69% and 42.05%
* [H][C@@]12OCCN(S(=O)(=O)c3cn(C)cn3)[C@@]1([H])CC[C@H]2OC | Mtb glucose medium: -17.17%; Mtb cholesterol medium: -17.54%
* CO[C@@H]1CCN(Cc2nccs2)C[C@@H]1Cc1cccc(C)c1.O=C(O)C(F)(F)F | Mtb glucose medium: 32.61%; Mtb cholesterol medium: 22.81%
* CCc1nnsc1C(=O)N1CCCN(Cc2ccc(F)cc2)CC1 | Mtb glucose medium: -1.575%; Mtb cholesterol medium: 7.749%
* COCCN(Cc1cccnc1)S(=O)(=O)c1cccc(F)c1F | Mtb glucose medium: 1.442%; Mtb cholesterol medium: -4.419% and -7.162%
* CC(C)Cn1c(=O)n(CCCn2cccn2)c2cc(C(=O)O)cnc21 | Mtb glucose medium: 27.86% and -5.757%; Mtb cholesterol medium: 14.01%
* O=C1CC2(CCSC2)C(=O)N1Cc1ncc(-c2cccc(F)c2)o1 (centres unmarked) | Mtb glucose medium: 31.87%; Mtb cholesterol medium: 26.89%
* O=C(O)C(F)(F)F.O=C(O)C(F)(F)F.c1ccc(CN2CCc3ncnc(C4CCOC4)c3CC2)nc1 (centres unmarked) | Mtb glucose medium: -1.049% and 7.756%; Mtb cholesterol medium: 0.8117%
* CCc1nncn1CCNC(=O)N1CCN(Cc2ccccc2)CC1 | Mtb glucose medium: -7.094%; Mtb cholesterol medium: -5.895%
* CC(=O)NCCCC(=O)N1CCc2[nH]c(-c3ccccc3)nc2C1 | Mtb glucose medium: -24.87%; Mtb cholesterol medium: 4.174%
* CC(c1cccc(Cl)c1)N(C)Cc1nc2c(cnn2C)c(=O)[nH]1 (centres unmarked) | Mtb glucose medium: -12.26%; Mtb cholesterol medium: -6.982%
* [H][C@]12CC[C@]([H])(CC(=O)NC1)N2C(=O)CCCc1ccc(Cl)cc1 | Mtb glucose medium: 0.6256% and -3.099%; Mtb cholesterol medium: -9.678%
* CC(=O)Nc1nc(CN2CCCC2Cn2cccn2)cs1 (centres unmarked) | Mtb glucose medium: 15.8%; Mtb cholesterol medium: -2.347%
* Cc1ccc(C(C(=O)N2CC(c3ccccn3)C2)N(C)C)cc1 (centres unmarked) | Mtb glucose medium: -39.12%; Mtb cholesterol medium: -36.99%
* COc1ncnc2c1CCN(c1cc(C(F)(F)F)ncn1)CC2 | Mtb glucose medium: -14.42%; Mtb cholesterol medium: -10.78%
* CN(C)C(=O)C1(c2cnccn2)CCCN1C(=O)Cc1ccccc1 (centres unmarked) | Mtb glucose medium: -25.41%; Mtb cholesterol medium: 1.492% and -3.17%
* CC(C)Nc1nc(O)cc(C(C)n2ncc3ccccc3c2=O)n1 (centres unmarked) | Mtb glucose medium: -40.45%; Mtb cholesterol medium: 7.255% and -9.58%
* COCCN1CC(Nc2nc(C(C)C)nc3c2cnn3C)CC1=O (centres unmarked) | Mtb glucose medium: -21.99%; Mtb cholesterol medium: -19.35%
* O=C(c1ccncc1)N(CCO)Cc1cc(Br)ccc1F | Mtb glucose medium: 9.157% and 1.081%; Mtb cholesterol medium: -2.45%
* CN(C)C(=O)c1ccc2c(c1)N(C)C(CC(=O)NC(C)(C)CO)CO2 (centres unmarked) | Mtb glucose medium: -19.08% and -34.98%; Mtb cholesterol medium: -17.55%
* Cc1nc(C)n(CC2CCCN2Cc2ncc(C(C)(C)C)o2)n1 (centres unmarked) | Mtb glucose medium: 26.14%; Mtb cholesterol medium: 2.615%
* Cc1nc(CCCNC(=O)Nc2cc(F)cc(F)c2)n[nH]1 | Mtb glucose medium: 9.407%; Mtb cholesterol medium: 2.702%
* CCC1C=CCN1C(=O)c1cc(COc2ccccc2OC)[nH]n1 (centres unmarked) | Mtb glucose medium: -1.845% and 7.571%; Mtb cholesterol medium: 1.971%
* CCC(C(=O)NC1(COC)CCCC1)n1cccn1 (centres unmarked) | Mtb glucose medium: -6.797% and -21.25%; Mtb cholesterol medium: -23.75%
* CCN(C(=O)CN1CCn2c(C)nnc2C1)C1=CCCCC1 | Mtb glucose medium: -17.98%; Mtb cholesterol medium: -36.19%
* CCn1c(CN2CCCC(O)(c3ccc(F)cc3)CC2)cnc1SC.O=C(O)CC(O)(CC(=O)O)C(=O)O (centres unmarked) | Mtb glucose medium: 29.75%; Mtb cholesterol medium: 17.15% and -0.2689%
* [H][C@]12CCN(C(=O)c3ccno3)C[C@@]1([H])OCCN(C1CCOCC1)C2 | Mtb glucose medium: 7.711%; Mtb cholesterol medium: -6.187%
* CC(=O)N[C@H]1CCO[C@@H](c2cccc(NC(=O)Cc3ccccc3)c2)C1 | Mtb glucose medium: -19.94%; Mtb cholesterol medium: -22.46% and -26.61%

3 of the entries, repeated:

structure	Mtb glucose medium	Mtb cholesterol medium
[H][C@]12CC[C@]([H])(CC(=O)NC1)N2C(=O)CCCc1ccc(Cl)cc1	0.6256 and -3.099	-9.678
COCCN(Cc1cccnc1)S(=O)(=O)c1cccc(F)c1F	1.442	-4.419 and -7.162
COCCN1CC(Nc2nc(C(C)C)nc3c2cnn3C)CC1=O (centres unmarked)	-21.99	-19.35

From ChEMBL document CHEMBL3988442, “University of Dundee, Small-Polar-MMV Screening Library” (2021).